Experiment [1] has as its target β-amyloid precursor protein (APP), rat, endogenous in brain homogenate (rat) (UniProt P08592). The experiment is described as follows: co-immunoprecipitation from rat brain homogenates, western blot. In general terms: In western blotting, separated proteins are transferred to a membrane and probed.
Experiment [2] concerns the target β-amyloid precursor protein (APP), full length, mouse, endogenous in forebrain lysate (mouse) (UniProt P12023). Description: co-immunoprecipitation from mouse brain homogenates in buffers of serially increased detergent stringency.
The target is the same in experiment [3]. Description: co-immunoprecipitation from mouse forebrain lysate, IP with anti-BACE1 antibody, blot for full length APP, NP40 buffer with 0 to 0.4% SDS.

Chains of the proteins cited; added tags and fusions are not shown. Residues count along the entry.
UniProt Q64605, residues 30-1907: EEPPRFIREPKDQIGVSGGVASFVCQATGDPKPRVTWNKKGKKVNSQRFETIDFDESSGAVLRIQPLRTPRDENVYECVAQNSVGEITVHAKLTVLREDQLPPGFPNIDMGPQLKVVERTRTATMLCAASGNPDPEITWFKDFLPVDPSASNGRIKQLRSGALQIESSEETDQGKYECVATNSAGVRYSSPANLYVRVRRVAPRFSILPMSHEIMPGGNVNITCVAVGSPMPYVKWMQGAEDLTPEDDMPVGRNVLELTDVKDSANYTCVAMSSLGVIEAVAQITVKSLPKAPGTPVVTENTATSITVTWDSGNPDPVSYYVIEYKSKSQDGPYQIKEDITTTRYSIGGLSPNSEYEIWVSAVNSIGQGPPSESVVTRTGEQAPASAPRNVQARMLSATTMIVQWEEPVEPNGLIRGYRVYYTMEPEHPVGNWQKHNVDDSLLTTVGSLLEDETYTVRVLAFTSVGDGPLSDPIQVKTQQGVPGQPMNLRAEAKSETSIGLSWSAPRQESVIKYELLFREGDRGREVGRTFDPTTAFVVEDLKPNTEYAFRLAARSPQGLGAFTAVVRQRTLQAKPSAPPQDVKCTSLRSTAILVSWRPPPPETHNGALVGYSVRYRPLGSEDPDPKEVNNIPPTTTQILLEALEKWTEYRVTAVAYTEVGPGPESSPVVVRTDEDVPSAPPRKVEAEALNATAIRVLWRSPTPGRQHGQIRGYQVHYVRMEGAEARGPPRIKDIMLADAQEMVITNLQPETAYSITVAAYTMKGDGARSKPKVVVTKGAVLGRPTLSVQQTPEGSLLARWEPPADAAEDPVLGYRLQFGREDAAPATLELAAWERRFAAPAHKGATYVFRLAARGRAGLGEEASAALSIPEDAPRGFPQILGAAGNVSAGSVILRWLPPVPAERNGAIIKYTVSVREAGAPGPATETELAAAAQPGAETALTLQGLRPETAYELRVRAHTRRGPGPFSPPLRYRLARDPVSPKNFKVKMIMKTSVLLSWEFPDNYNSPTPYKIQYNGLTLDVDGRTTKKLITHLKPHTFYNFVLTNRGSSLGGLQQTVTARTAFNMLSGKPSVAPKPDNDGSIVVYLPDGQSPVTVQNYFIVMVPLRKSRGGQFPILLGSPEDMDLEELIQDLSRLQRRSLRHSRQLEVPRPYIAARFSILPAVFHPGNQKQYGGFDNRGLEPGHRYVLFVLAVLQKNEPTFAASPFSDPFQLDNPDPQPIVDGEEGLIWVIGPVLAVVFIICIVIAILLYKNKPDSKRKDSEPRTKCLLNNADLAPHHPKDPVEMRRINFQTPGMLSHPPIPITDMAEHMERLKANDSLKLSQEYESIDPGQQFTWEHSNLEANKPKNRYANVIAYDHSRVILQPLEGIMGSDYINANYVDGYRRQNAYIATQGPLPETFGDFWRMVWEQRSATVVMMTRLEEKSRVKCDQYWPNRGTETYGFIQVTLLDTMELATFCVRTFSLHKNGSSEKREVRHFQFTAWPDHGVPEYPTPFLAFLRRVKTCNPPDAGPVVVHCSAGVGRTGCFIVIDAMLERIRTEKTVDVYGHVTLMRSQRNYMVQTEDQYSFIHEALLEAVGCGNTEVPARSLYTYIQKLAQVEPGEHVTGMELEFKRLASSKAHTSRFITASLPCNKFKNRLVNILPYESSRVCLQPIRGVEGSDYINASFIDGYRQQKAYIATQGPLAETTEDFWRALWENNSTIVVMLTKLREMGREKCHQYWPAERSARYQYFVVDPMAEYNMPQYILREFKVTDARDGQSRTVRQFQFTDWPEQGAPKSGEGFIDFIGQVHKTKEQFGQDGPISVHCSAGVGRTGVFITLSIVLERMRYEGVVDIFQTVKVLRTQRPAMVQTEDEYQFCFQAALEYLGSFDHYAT
UniProt P56818, residues 46-501: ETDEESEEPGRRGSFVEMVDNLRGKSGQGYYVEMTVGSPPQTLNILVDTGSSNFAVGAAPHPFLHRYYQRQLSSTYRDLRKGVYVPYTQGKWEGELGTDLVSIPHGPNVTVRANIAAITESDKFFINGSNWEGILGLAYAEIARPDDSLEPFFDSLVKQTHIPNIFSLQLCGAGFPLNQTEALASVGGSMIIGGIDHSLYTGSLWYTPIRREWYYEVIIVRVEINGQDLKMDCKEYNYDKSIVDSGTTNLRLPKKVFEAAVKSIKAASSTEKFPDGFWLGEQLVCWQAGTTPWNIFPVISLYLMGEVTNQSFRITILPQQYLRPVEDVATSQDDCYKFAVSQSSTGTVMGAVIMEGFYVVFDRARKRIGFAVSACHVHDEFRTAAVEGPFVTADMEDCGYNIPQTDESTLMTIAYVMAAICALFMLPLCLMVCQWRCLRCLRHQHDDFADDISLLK

No constants are given. Whether binding was seen depends on the method and setting. Binding seen in cells or lysates may run through a third protein. Some entries that bind do so weakly or less than the wild type.

For “PTPσ (protein tyrosine phosphatase sigma), rat, endogenous in brain homogenate (from UniProt Q64605 30-1907) (receptor)”, the binding entry in experiment [1] is recorded as “binds”.
For “BACE1, the β-secretase in the brain, mouse, endogenous in forebrain lysate (from UniProt P56818 46-501) (enzyme)”, the binding result in experiment [2] and in experiment [3] was “binds” throughout.

(Values after US20200093890A1, “COMPOSITIONS AND METHODS FOR TREATING ALZHEIMER'S DISEASE” (CASE WESTERN RESERVE UNIVERSITY, priority 2017, published 2020).)
